Data reported in the supplement of paper PMC4604168 (melanoma cell lines).
The other results are listed elsewhere or left out. Repeats are few or missing, and single values can be far off.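 Cells were imaged in 1,536-well plates, and nuclei stained with an antibody against cleaved PARP were counted against all DNA-stained nuclei to give the apoptosis fraction. Screening doses were chosen to leave most cells alive, and resting and induced cleaved-PARP levels differ strongly between cell lines.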

System: IPC-298
Assay: cleaved PARP positive nuclei fraction relative to DMSO control; melanoma cells; higher = more apoptosis
Details: library dose: low library concentration; 72 h

Row | SMILES | cleaved PARP positive nuclei fraction
1 | Cn1c(=O)n(-c2ccc(C(C)(C)C#N)cc2)c2c3cc(-c4cnc5ccccc5c4)ccc3ncc21 + Cn1nnc2c(C(N)=O)ncn2c1=O [temozolomide] (first compound 0.004 µM, partner dose 2 µM) | 92.6%
2 | CC(C)C[C@H](NC(=O)[C@H](Cc1ccccc1)NC(=O)c1cnccn1)B(O)O [Bortezomib] + C[C@@H](Oc1cc(-c2cnn(C3CCNCC3)c2)cnc1N)c1c(Cl)ccc(F)c1Cl [Crizotinib] (first compound 0.001 µM, partner dose 0.2 µM) | 126%
3 | O=C(O)[C@@H]1[O][Sb](=[O])([O][Sb]2(=[O])[O][C@H]([C@H](O)CO)[C@H](O)[C@H](C(=O)O)[O]2)[O][C@H]([C@H](O)CO)[C@@H]1O (stereo partly drawn) [stibogluconate] + OCc1c[nH]c2ccccc12 [Indole-3-carbinol] (first compound 2 µM, partner dose 0.8 µM) | 59.5%
4 | C=C(c1ccc(C(=O)O)cc1)c1cc2c(cc1C)C(C)(C)CCC2(C)C [Bexarotene] + Cn1nnc2c(C(N)=O)ncn2c1=O [temozolomide] (first compound 2 µM, partner dose 2 µM) | 249%
5 | Nc1ncn([C@H]2C[C@H](O)[C@@H](CO)O2)c(=O)n1 [decitabine] + C[C@]1(c2nc3c(C(N)=O)cccc3[nH]2)CCCN1 [Veliparib] (first compound 0.1 µM, partner dose 1.4 µM) | 67.8%
6 | CN1CCN(c2ccc3nc(-c4c(N)c5c(F)cccc5[nH]c4=O)[nH]c3c2)CC1 [Dovitinib] + Nc1nc(F)nc2c1ncn2[C@@H]1O[C@H](CO)[C@@H](O)[C@@H]1O [fludarabine] (first compound 0.1 µM, partner dose 0.2 µM) | 218%
7 | CO[C@H]1C[C@@H]2CC[C@@H](C)[C@@](O)(O2)C(=O)C(=O)N2CCCC[C@H]2C(=O)O[C@H]([C@H](C)C[C@@H]2CC[C@@H](OCCO)[C@H](OC)C2)CC(=O)[C@H](C)/C=C(\C)[C@@H](O)[C@@H](OC)C(=O)[C@H](C)C[C@H](C)/C=C/C=C/C=C/1C [everolimus] + Clc1ccc(Nc2nnc(Cc3ccncc3)c3ccccc23)cc1 [vatalanib] (first compound 0.02 µM, partner dose 2 µM) | 118%
8 | CO[C@H]1C[C@@H]2CC[C@@H](C)[C@@](O)(O2)C(=O)C(=O)N2CCCC[C@H]2C(=O)O[C@H]([C@H](C)C[C@@H]2CC[C@@H](OCCO)[C@H](OC)C2)CC(=O)[C@H](C)/C=C(\C)[C@@H](O)[C@@H](OC)C(=O)[C@H](C)C[C@H](C)/C=C/C=C/C=C/1C [everolimus] + C#Cc1cccc(Nc2ncnc3cc(OCCOC)c(OCCOC)cc23)c1 [erlotinib] (first compound 0.02 µM, partner dose 0.8 µM) | 126%
9 | CS(=O)(=O)CCNCc1ccc(-c2ccc3ncnc(Nc4ccc(OCc5cccc(F)c5)c(Cl)c4)c3c2)o1 [lapatinib] + OCc1c[nH]c2ccccc12 [Indole-3-carbinol] (first compound 0.8 µM, partner dose 0.8 µM) | 95.6%
10 | C[C@@H](Oc1cc(-c2cnn(C3CCNCC3)c2)cnc1N)c1c(Cl)ccc(F)c1Cl [Crizotinib] + Nc1ccn([C@@H]2O[C@H](CO)[C@@H](O)C2(F)F)c(=O)n1 [gemcitabine] (first compound 0.2 µM, partner dose 0.0004 µM) | 85.4%
11 | O=C(O)[C@@H]1[O][Sb](=[O])([O][Sb]2(=[O])[O][C@H]([C@H](O)CO)[C@H](O)[C@H](C(=O)O)[O]2)[O][C@H]([C@H](O)CO)[C@@H]1O (stereo partly drawn) [stibogluconate] + COc1ccc(Cl)c(Nc2nc3ccccc3nc2NS(=O)(=O)c2cccc(NC(=O)C(C)(C)N)c2)c1 [XL147] (first compound 2 µM, partner dose 0.8 µM) | 123%
12 | Cc1cc(Nc2cc(N3CCN(C)CC3)nc(/C=C/c3ccccc3)n2)n[nH]1 + C#Cc1cccc(Nc2ncnc3cc(OCCOC)c(OCCOC)cc23)c1 [erlotinib] (first compound 0.04 µM, partner dose 0.8 µM) | 126%
13 | Nc1ccn([C@@H]2O[C@H](CO)[C@@H](O)C2(F)F)c(=O)n1 [gemcitabine] + COc1ccc(Cl)c(Nc2nc3ccccc3nc2NS(=O)(=O)c2cccc(NC(=O)C(C)(C)N)c2)c1 [XL147] (first compound 0.0004 µM, partner dose 0.8 µM) | 95.9%

Reformatted: results already given
O=C(O)[C@@H]1[O][Sb](=[O])([O][Sb]2(=[O])[O][C@H]([C@H](O)CO)[C@H](O)[C@H](C(=O)O)[O]2)[O][C@H]([C@H](O)CO)[C@@H]1O (stereo partly drawn) [stibogluconate] + OCc1c[nH]c2ccccc12 [Indole-3-carbinol] (first compound 2 µM, partner dose 0.8 µM)
  cleaved PARP positive nuclei fraction: 59.5%
Nc1ccn([C@@H]2O[C@H](CO)[C@@H](O)C2(F)F)c(=O)n1 [gemcitabine] + COc1ccc(Cl)c(Nc2nc3ccccc3nc2NS(=O)(=O)c2cccc(NC(=O)C(C)(C)N)c2)c1 [XL147] (first compound 0.0004 µM, partner dose 0.8 µM)
  cleaved PARP positive nuclei fraction: 95.9%
